# Results of single-concentration screens

Sequences of proteins named here, by UniProt entry; tags and fusion partners are left off. Residues count along the entry.
UniProt P9WNZ1, whole entry: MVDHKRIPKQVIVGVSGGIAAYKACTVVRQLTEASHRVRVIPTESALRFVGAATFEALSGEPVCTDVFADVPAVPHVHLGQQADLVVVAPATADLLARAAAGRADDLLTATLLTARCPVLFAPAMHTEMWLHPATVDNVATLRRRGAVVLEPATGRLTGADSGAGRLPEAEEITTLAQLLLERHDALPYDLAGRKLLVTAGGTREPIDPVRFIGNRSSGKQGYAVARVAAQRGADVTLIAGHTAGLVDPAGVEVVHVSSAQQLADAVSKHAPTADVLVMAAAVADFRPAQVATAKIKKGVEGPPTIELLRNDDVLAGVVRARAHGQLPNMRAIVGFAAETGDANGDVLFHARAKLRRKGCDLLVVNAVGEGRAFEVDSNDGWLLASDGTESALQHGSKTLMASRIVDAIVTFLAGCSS
UniProt Q8IDJ8, 1-583: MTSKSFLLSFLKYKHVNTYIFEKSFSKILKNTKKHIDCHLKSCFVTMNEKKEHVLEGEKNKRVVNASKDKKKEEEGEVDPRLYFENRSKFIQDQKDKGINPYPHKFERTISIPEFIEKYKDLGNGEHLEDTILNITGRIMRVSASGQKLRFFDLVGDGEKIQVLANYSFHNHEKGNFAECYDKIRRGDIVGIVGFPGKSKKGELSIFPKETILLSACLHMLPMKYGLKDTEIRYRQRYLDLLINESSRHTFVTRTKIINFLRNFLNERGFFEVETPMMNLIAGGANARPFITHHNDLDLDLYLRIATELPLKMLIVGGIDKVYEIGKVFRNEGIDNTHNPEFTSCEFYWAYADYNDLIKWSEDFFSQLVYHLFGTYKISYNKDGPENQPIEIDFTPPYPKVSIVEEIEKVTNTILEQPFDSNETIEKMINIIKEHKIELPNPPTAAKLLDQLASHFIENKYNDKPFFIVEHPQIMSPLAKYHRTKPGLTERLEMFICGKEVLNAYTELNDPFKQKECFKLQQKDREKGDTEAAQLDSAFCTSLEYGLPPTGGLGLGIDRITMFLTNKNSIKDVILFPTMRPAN
UniProt A4I591, 1-473: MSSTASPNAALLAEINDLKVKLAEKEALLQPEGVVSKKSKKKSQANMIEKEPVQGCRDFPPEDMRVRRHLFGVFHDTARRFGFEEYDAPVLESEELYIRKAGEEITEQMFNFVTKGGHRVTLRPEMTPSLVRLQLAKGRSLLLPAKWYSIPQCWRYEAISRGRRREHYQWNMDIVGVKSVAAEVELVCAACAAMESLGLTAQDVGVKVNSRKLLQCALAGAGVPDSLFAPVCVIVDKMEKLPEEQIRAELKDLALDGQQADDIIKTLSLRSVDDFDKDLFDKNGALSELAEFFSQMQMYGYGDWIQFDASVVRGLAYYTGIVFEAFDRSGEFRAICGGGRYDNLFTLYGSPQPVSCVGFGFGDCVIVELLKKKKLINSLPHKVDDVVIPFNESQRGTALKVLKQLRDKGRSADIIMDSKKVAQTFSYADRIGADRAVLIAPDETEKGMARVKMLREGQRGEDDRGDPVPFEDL

CoaBC: 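Coenzyme A biosynthesis protein CoaBC, Mycobacterium tuberculosis (UniProt P9WNZ1). Enzyme assay of CoaBC with a phosphate dye (Biomol Green) read at 650 nm. Concentration: 30 µM. Higher reads as stronger inhibition, judged from the few compounds that gave an IC50. Most strong results did not repeat in a second test. Size under these conditions: about 67,000 compounds, about 40 of them at 50% or above in at least one test.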
PfKRS1: 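Lysine-tRNA ligase, Plasmodium falciparum 3D7 (UniProt Q8IDJ8). Enzyme assay of the cytosolic lysyl-tRNA synthetase in 384-well plates, read by luminescence. Tested at 30 µM. Higher reads as stronger inhibition, judged from the few compounds that gave an IC50. Of about 69,000 compounds tested this way, about 49 (0.071%) reached 50% or more in at least one test.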
LiHisRS: 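Histidine-tRNA ligase, Leishmania infantum (UniProt A4I591). Enzyme assay of histidyl-tRNA synthetase; the read-out is not stated. Concentration: 30 µM. Higher reads as stronger inhibition (inferred: compounds with an IC50 in retests scored well above the rest). The assay is labelled LdHisRS but filed under L. infantum. Of about 69,000 compounds tested this way, about 410 (0.6%) reached 50% or more in at least one test.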

Values are the deposited “Percent Effect”, in %. How 0% and 100% were set is not recorded. Most values in the screen are low, and negative values occur. The compounds are a random part of those screened.

{"compound": "Cc1cccnc1C(=O)N1CCC(Cc2cnc3[nH]ccc3c2)CC1", "CoaBC": 2.696, "PfKRS1": 1.598, "LiHisRS": 17.71}
{"compound": "CCCC(=O)N(C)c1cccc2ncccc12", "CoaBC": -2.056, "PfKRS1": 5.195, "LiHisRS": 9.677}
{"compound": "O=C1COC2(CCN(Cc3cccs3)CC2)CN1c1cccnc1", "CoaBC": 4.685, "PfKRS1": 2.811, "LiHisRS": 24.47}
{"compound": "CN(Cc1cscn1)C(=O)C(c1ccccc1)N1CCSCC1", "stereo": "centres unmarked", "CoaBC": 1.24, "PfKRS1": -3.82, "LiHisRS": 16.96}
{"compound": "Cc1ccc2cc(C3(O)CCN(C(=O)CSC(C)C)CC3)ccc2n1", "CoaBC": 2.959, "PfKRS1": 1.611, "LiHisRS": 15.15}
{"compound": "CCC(C)N(Cc1sccc1C)C(=O)c1cc(N)ccn1", "stereo": "centres unmarked", "CoaBC": 0.9877, "PfKRS1": 2.538, "LiHisRS": 12.59}
{"compound": "CCC(NC(=O)c1ccc(COC)o1)c1nc(C(F)(F)F)cs1", "stereo": "centres unmarked", "CoaBC": 4.715, "PfKRS1": 2.615, "LiHisRS": 10.92}
{"compound": "CNC(=O)[C@@H]1C[C@@H](NC(=O)c2ccc(OC)o2)CN1Cc1sccc1C", "CoaBC": 4.819, "PfKRS1": 4.988, "LiHisRS": 4.478}
{"compound": "CN1CCN2C(=O)N(C3CCOCC3)C[C@H]2C1", "CoaBC": 7.662, "PfKRS1": 2.551, "LiHisRS": 10.81}
{"compound": "CC1(C(N)=O)CN(S(=O)(=O)c2cccc(F)c2)CCO1", "stereo": "centres unmarked", "CoaBC": -5.569, "PfKRS1": 0.9428, "LiHisRS": -4.196}
{"compound": "CNC(=O)[C@@H]1[C@H]2CN(Cc3ccoc3)CCN2C[C@H]1c1ccccc1", "CoaBC": 0.4843, "PfKRS1": 2.008, "LiHisRS": -4.082}
{"compound": "CNc1nc(C)cc(NCc2cc(C)cc3c(C)c(C)[nH]c23)n1", "CoaBC": 1.829, "PfKRS1": 1.533, "LiHisRS": 26.37}
{"compound": "CC1CCN(C(=O)c2cccc(CN3CCOCC3)c2)CC1", "CoaBC": 3.49, "PfKRS1": 1.43, "LiHisRS": 2.247}
{"compound": "CO[C@@H]1c2ccccc2C2(CCN(C(=O)CNC(=O)C(C)C)CC2)[C@H]1O", "CoaBC": 2.684, "PfKRS1": 13.82, "LiHisRS": 8.333}
{"compound": "CCCOC(C)C(=O)NCc1cc2n(n1)CCCN(C1CCCCC1)C2", "stereo": "centres unmarked", "CoaBC": -2.527, "PfKRS1": 5.012, "LiHisRS": 17.98}
{"compound": "CCOC(C(=O)N1CCn2c(C)nnc2C1)c1ccccc1", "stereo": "centres unmarked", "CoaBC": 8.293, "PfKRS1": 2.009, "LiHisRS": 13.33}
{"compound": "O=C(CCn1cncn1)NC1CCS(=O)(=O)C1", "stereo": "centres unmarked", "CoaBC": 11.6, "PfKRS1": 7.676, "LiHisRS": 10.26}
{"compound": "N#Cc1cccc(NC(=O)N(CC(F)F)C2CC2)c1", "CoaBC": -2.893, "PfKRS1": 6.176, "LiHisRS": 8.036}
{"compound": "CCN1CCN(C2CCN(Cc3nc(C)c(C)o3)CC2)C1=O", "CoaBC": 6.562, "PfKRS1": 1.263, "LiHisRS": 13.56}
{"compound": "Cc1noc(-c2ccnc(N3CCC(CN4CCOCC4)CC3)c2)n1", "CoaBC": 17.8, "PfKRS1": -8.33, "LiHisRS": 20}
{"compound": "Cc1cccc(SC2CCN(C(=O)CCCS(N)(=O)=O)CC2)c1", "CoaBC": 4.982, "PfKRS1": 10.64, "LiHisRS": 19.57}
{"compound": "O=c1ccc2c([nH]1)CCC(NCc1ccc3c(c1)OCO3)C2", "stereo": "centres unmarked", "CoaBC": -4.198, "PfKRS1": -1.69, "LiHisRS": 6.944}
{"compound": "CN1C(=O)CCC12CCCN(C(=O)c1ccncc1F)C2", "stereo": "centres unmarked", "CoaBC": 0.8485, "PfKRS1": 3.306, "LiHisRS": 23.08}
{"compound": "CCSc1ccccc1C(=O)NCCN1CCC(c2cccs2)CC1", "CoaBC": 3.008, "PfKRS1": -0.5698, "LiHisRS": 20.22}
{"compound": "Cc1ccc(Sc2nccn(C)c2=O)cc1", "CoaBC": 5.058, "PfKRS1": 11.54, "LiHisRS": 15.32}
{"compound": "O=c1c(NCc2ccccn2)c(NCC(O)CN2CCOCC2)c1=O", "stereo": "centres unmarked", "CoaBC": -3.03, "PfKRS1": 7.613, "LiHisRS": 15.79}
{"compound": "CC(=O)N1N=C(c2cccs2)OC1C(=O)Nc1ccc(C)cc1", "stereo": "centres unmarked", "CoaBC": 1.214, "PfKRS1": 3.816, "LiHisRS": 29.7}
{"compound": "CCN(CC)[C@@H]1CN(C(=O)c2ccc(C#N)cc2)[C@@H]2CCCO[C@H]12", "PfKRS1": -3.121, "LiHisRS": 5.128}
{"compound": "CCc1nc(N2CCN(c3ncccn3)CC2)c2cnn(C)c2n1", "CoaBC": -1.082, "PfKRS1": 8.155, "LiHisRS": 16.39}

Some entries from above, unchanged:

compound	CoaBC	PfKRS1	LiHisRS
CC1CCN(C(=O)c2cccc(CN3CCOCC3)c2)CC1	3.49%	1.43%	2.247%
O=c1ccc2c([nH]1)CCC(NCc1ccc3c(c1)OCO3)C2 (centres unmarked)	-4.198%	-1.69%	6.944%

From ChEMBL document CHEMBL3988442, “University of Dundee, Small-Polar-MMV Screening Library” (2021).